# Source: ChEMBL document CHEMBL4316593 (Eur J Med Chem, 2019)
# Further values from the same series stand in other lists.
# What was measured:
# Type in all cases: cell-based
# Details in all cases: U-87MG ATCC
# [1] = Inhibition of RTK/PI3K/AKT/mTOR signaling in human U87 cells assessed as down regulation of CHGA gene expression at cytotoxic IC50 measured after 48 hrs relative to control
# [2] = Inhibition of RTK/PI3K/AKT/mTOR signaling in human U87 cells assessed as down regulation of ASNS gene expression at cytotoxic IC50 measured after 48 hrs relative to control
# [3] = Inhibition of RTK/PI3K/AKT/mTOR signaling in human U87 cells assessed as down regulation of ARNT2 gene expression at cytotoxic IC50 measured after 48 hrs relative to control
# [4] = Inhibition of RTK/PI3K/AKT/mTOR signaling in human U87 cells assessed as down regulation of ZNF468 gene expression at cytotoxic IC50 measured after 48 hrs relative to control
# [5] = Inhibition of RTK/PI3K/AKT/mTOR signaling in human U87 cells assessed as down regulation of WDHD1 gene expression at cytotoxic IC50 measured after 48 hrs relative to control
# [6] = Inhibition of RTK/PI3K/AKT/mTOR signaling in human U87 cells assessed as down regulation of TUBA1C gene expression at cytotoxic IC50 measured after 48 hrs relative to control
# [7] = Inhibition of RTK/PI3K/AKT/mTOR signaling in human U87 cells assessed as down regulation of DYNC1LI1 gene expression at cytotoxic IC50 measured after 48 hrs relative to control
# [8] = Inhibition of RTK/PI3K/AKT/mTOR signaling in human U87 cells assessed as down regulation of SLC45A4 gene expression at cytotoxic IC50 measured after 48 hrs relative to control
# [9] = Inhibition of RTK/PI3K/AKT/mTOR signaling in human U87 cells assessed as down regulation of HIPK1 gene expression at cytotoxic IC50 measured after 48 hrs relative to control
# [10] = Inhibition of RTK/PI3K/AKT/mTOR signaling in human U87 cells assessed as down regulation of DRAP1 gene expression at cytotoxic IC50 measured after 48 hrs relative to control
# [11] = Inhibition of RTK/PI3K/AKT/mTOR signaling in human U87 cells assessed as down regulation of PPIL4 gene expression at cytotoxic IC50 measured after 48 hrs relative to control
# [12] = Inhibition of RTK/PI3K/AKT/mTOR signaling in human U87 cells assessed as down regulation of ATG13 gene expression at cytotoxic IC50 measured after 48 hrs relative to control
# [13] = Inhibition of RTK/PI3K/AKT/mTOR signaling in human U87 cells assessed as down regulation of NUDC gene expression at cytotoxic IC50 measured after 48 hrs relative to control
# [14] = Inhibition of RTK/PI3K/AKT/mTOR signaling in human U87 cells assessed as up regulation of LENG9 gene expression at cytotoxic IC50 measured after 48 hrs relative to control
# [15] = Inhibition of RTK/PI3K/AKT/mTOR signaling in human U87 cells assessed as up regulation of SLC16A3 gene expression at cytotoxic IC50 measured after 48 hrs relative to control
# [16] = Inhibition of RTK/PI3K/AKT/mTOR signaling in human U87 cells assessed as up regulation of laminin subunit beta 3 gene expression at cytotoxic IC50 measured after 48 hrs relative to control
# [17] = Inhibition of RTK/PI3K/AKT/mTOR signaling in human U87 cells assessed as up regulation of mannose phosphate isomerase gene expression at cytotoxic IC50 measured after 48 hrs relative to control
# [18] = Inhibition of RTK/PI3K/AKT/mTOR signaling in human U87 cells assessed as up regulation of sprouty RTK signaling antagonist 1 gene expression at cytotoxic IC50 measured after 48 hrs relative to control
# [19] = Inhibition of RTK/PI3K/AKT/mTOR signaling in human U87 cells assessed as up regulation of thymosin beta 4, X-linked gene expression at cytotoxic IC50 measured after 48 hrs relative to control
# [20] = Inhibition of RTK/PI3K/AKT/mTOR signaling in human U87 cells assessed as up regulation of SPEG complex locus gene expression at cytotoxic IC50 measured after 48 hrs relative to control
# [21] = Inhibition of RTK/PI3K/AKT/mTOR signaling in human U87 cells assessed as up regulation of CXXC finger protein 5 gene expression at cytotoxic IC50 measured after 48 hrs relative to control
# [22] = Inhibition of RTK/PI3K/AKT/mTOR signaling in human U87 cells assessed as up regulation of Rho/Rac guanine nucleotide exchange factor 2 gene expression at cytotoxic IC50 measured after 48 hrs relative to control
# [23] = Inhibition of RTK/PI3K/AKT/mTOR signaling in human U87 cells assessed as up regulation of pyroglutamyl-peptidase I gene expression at cytotoxic IC50 measured after 48 hrs relative to control
# [24] = Inhibition of RTK/PI3K/AKT/mTOR signaling in human U87 cells assessed as up regulation of ring finger protein 207 gene expression at cytotoxic IC50 measured after 48 hrs relative to control
# [25] = Inhibition of RTK/PI3K/AKT/mTOR signaling in human U87 cells assessed as up regulation of pleckstrin homology and RhoGEF domain containing G4 gene expression at cytotoxic IC50 measured after 48 hrs relative to control
# [26] = Inhibition of RTK/PI3K/AKT/mTOR signaling in human U87 cells assessed as up regulation of SRY-box 4 gene expression at cytotoxic IC50 measured after 48 hrs relative to control
# [27] = Inhibition of RTK/PI3K/AKT/mTOR signaling in human U87 cells assessed as up regulation of tripartite motif containing 72 gene expression at cytotoxic IC50 measured after 48 hrs relative to control
# [28] = Inhibition of RTK/PI3K/AKT/mTOR signaling in human U87 cells assessed as up regulation of cyclin B1 interacting protein 1 gene expression at cytotoxic IC50 measured after 48 hrs relative to control
# [29] = Inhibition of RTK/PI3K/AKT/mTOR signaling in human U87 cells assessed as up regulation of abhydrolase domain containing 10 gene expression at cytotoxic IC50 measured after 48 hrs relative to control
# [30] = Inhibition of RTK/PI3K/AKT/mTOR signaling in human U87 cells assessed as up regulation of UL16 binding protein 1 gene expression at cytotoxic IC50 measured after 48 hrs relative to control
# [31] = Inhibition of RTK/PI3K/AKT/mTOR signaling in human U87 cells assessed as up regulation of PHD finger protein 23 gene expression at cytotoxic IC50 measured after 48 hrs relative to control
# [32] = Inhibition of RTK/PI3K/AKT/mTOR signaling in human U87 cells assessed as up regulation of LRPPRC gene expression at cytotoxic IC50 measured after 48 hrs relative to control
smiles,measurement,setting,value
CC(=O)C(=NNc1ccccc1C#N)C(C)=O,log2FC,[1],-6.54
same,log2FC,[2],-1.39
same,log2FC,[3],-1.35
same,log2FC,[4],-1
same,log2FC,[5],-0.948
same,log2FC,[6],-0.879
same,log2FC,[7],-0.862
same,log2FC,[8],-0.848
same,log2FC,[9],-0.818
same,log2FC,[10],-0.816
same,log2FC,[11],-0.509
same,log2FC,[12],-0.49
same,log2FC,[13],-0.456
same,log2FC,[14],2.03
same,log2FC,[15],1.69
same,log2FC,[16],1.56
same,log2FC,[17],1.32
same,log2FC,[18],1.28
same,log2FC,[19],1.25
same,log2FC,[20],1.25
same,log2FC,[21],1.23
same,log2FC,[22],1.2
same,log2FC,[23],1.18
same,log2FC,[24],1.17
same,log2FC,[25],1.12
same,log2FC,[26],0.948
same,log2FC,[27],0.924
same,log2FC,[28],0.803
same,log2FC,[29],0.768
same,log2FC,[30],0.744
same,log2FC,[31],0.73
same,log2FC,[32],0.459
